Some of the results follow. Further columns of the screen follow, without active or inactive calls. Most of these compounds were active or inconclusive in the main read-out, so they are no random draw. Potencies come from curve fits of mixed quality, noted in brackets.
Test: qHTS Assay for Lipid Storage Modulators in Drosophila S3 Cells;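 on cell number change: cells counted by Cell Tracker Red CMTPX staining in the red channel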
Settings: BODIPY lipid droplet fluorescence, 18-24 h; for cell number change: measured here: cell count max response, cells fed with added oleic acid
In short: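 Drosophila S3 cells loaded with oleic acid (400 uM, as added) and compounds at several concentrations; lipid droplets imaged by 488-nm laser-scanning cytometry, 500–530 nm intensity and object ratio to cell channel. Percent activity normalized to 20 uM Triacsin C.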

[1] = measured here: cell number channel AC50, cells fed with added oleic acid
[2] = measured here: lipid fluorescence (Fed channel) AC50, cells fed with added oleic acid

Compound	cell number change	AC50 [1]	AC50 [2]
COCCOC(=O)c1c(N)n(Cc2ccc(OC)cc2)c2nc3ccccc3nc12	-3.64%	–	–
O=C(NCc1cccnc1)Nc1ccc([N+](=O)[O-])cc1	9.63%	–	–
CN1CCN(Cc2ccc(OC(F)(F)F)cc2)CC1	–	366 nM [falling, partial curve, poor fit]	25900 nM [falling, partial curve, poor fit]
Cc1cccc(N2C(=O)NC(=O)/C(=C\c3cccn3-c3ccc(Cl)cc3)C2=O)c1	-25.4%	–	16400 nM [falling, single point]
C=C1C(=O)O[C@H]2C[C@@H](C)[C@@H]3C=CC(=O)[C@@]3(C)C[C@H]12	-59.7%	18400 nM [falling, single point]	18400 nM [falling, partial curve]
C1=C(c2ccccc2)CCNC1	8.32%	–	32.6 nM [rising, full curve, poor fit]
CCOc1ccc2nc(N=Nc3c(O)[nH]c(=S)[nH]c3=O)sc2c1	-9.23%	580 nM [rising, full curve]	651 nM [rising, full curve]
O=C1CC(=O)N(c2cccc(Br)c2)C(=O)N1	-31.9%	–	580 nM [rising, single point]
CCOC(=O)C1CN(C)CCC1=O (stereo not given)	10.1%	–	32600 nM [falling, partial curve, poor fit]
CC1=CC(=O)C2=C(C)C[C@H](O)[C@@H]3[C@H](OC(=O)[C@H]3C)[C@@H]12	15.9%	–	1640 nM [rising, partial curve]
COC(=O)C1=C(c2ccc(C(C)=O)cc2)C[C@@H]2CC[C@H]1N2C(=O)NCc1ccc(F)cc1	-13.9%	–	164 nM [rising, full curve, poor fit]
COc1cccc(N=Nc2c(O)[nH]c(=S)[nH]c2=O)c1	-8.39%	–	2060 nM [falling, partial curve, poor fit]
COC(=O)C1=C(c2cccc(OCc3ccccc3)c2)C[C@@H]2CC[C@H]1N2C(=O)NCc1cc(C)oc1C(F)(F)F	–	146 nM [falling, full curve, poor fit]	–
Cc1cc(C=C2C(=O)N(C)C(=S)N(C)C2=O)c(C)n1C1CCCC1	14.8%	411 nM [falling, full curve, poor fit]	6510 nM [falling, single point]
COC(=O)C1=C(c2ccc(Cl)c(C(F)(F)F)c2)C[C@@H]2CC[C@H]1N2C(=O)NCCOc1ccccc1	-45.4%	20600 nM [falling, single point]	731 nM [falling, full curve]
CCC(C)C12CN3CCN(CC(C)(C3)C1=O)C2 (stereo not given)	39.4%	20600 nM [rising, single point]	–
CCC1(c2cccc(O)c2)CCCCN(C)C1 (stereo not given)	-31.6%	3660 nM [falling, partial curve, poor fit]	461 nM [falling, full curve]
O=c1cccc2n1CC1CC2CN(C(c2cccc(F)c2)c2sc3ncnn3c2O)C1 (stereo not given)	-63.7%	18400 nM [falling, single point]	–
Cc1oc(-c2ccccc2Cl)nc1CN1C(=O)CN=C(c2ccccc2)c2ccccc21	31%	2310 nM [rising, full curve, poor fit]	–
C1CCC(NC2CCCCC2)CC1	15.8%	–	4610 nM [rising, single point]
COC(=O)c1ccccc1OP(=O)(c1cccc([N+](=O)[O-])c1)c1cccc([N+](=O)[O-])c1	5.29%	–	6510 nM [falling, single point]
CC(C)N1C(=O)NC(=O)C2(Cc3cc([N+](=O)[O-])ccc3N(C)C2c2ccccc2)C1=O (stereo not given)	-17.6%	–	23100 nM [falling, single point]
O=C1NS(=O)c2cc([N+](=O)[O-])cc([N+](=O)[O-])c21 (stereo not given)	–	146 nM [falling, full curve, poor fit]	2310 nM [falling, single point]
C=CCn1c(O)c(C=Nc2ccc(OC)cc2C)c(=O)[nH]c1=O	-30.6%	–	–
Cc1nc2ccccc2c(=O)n1-c1ccccc1[N+](=O)[O-]	-4.42%	–	820 nM [falling, single point]
CCOP(=O)(C#CC(C)(C)C)C(C)(O)c1ccccc1 (stereo not given)	3.91%	–	3260 nM [falling, partial curve]
COC(=O)C1=C(c2ccc(F)cc2OCc2ccccc2)C[C@@H]2CC[C@H]1N2C(=O)NCc1ccc(F)cc1	6.14%	–	2910 nM [falling, single point]

As entered above:
Value of COC(=O)C1=C(c2cccc(OCc3ccccc3)c2)C[C@@H]2CC[C@H]1N2C(=O)NCc1cc(C)oc1C(F)(F)F under AC50 [1]: 146 nM [falling, full curve, poor fit]
Value of O=C1CC(=O)N(c2cccc(Br)c2)C(=O)N1 under cell number change: -31.9%

Source: PubChem BioAssay AID2685 (National Center for Advancing Translational Sciences (NCATS), 2010)
